From patent US11213512B2, “Bis-amino acid based compound and use thereof” (THE CURATORS OF THE UNIVERSITY OF MISSOURI, priority 2016, dated 2022)
Some results were stated once for a whole list of compounds, not compound by compound.

Legend:
[1] = test system: HEK-293 cells; assay: Cytotoxicity to mammalian cells, XTT assay; format: cell-based, human; conditions: 24 h
Protocol: (§1) It was initially hypothesized that antimicrobial activity resulted from membrane disruption. Membrane active compounds are often cytotoxic to mammalian cells (Shai, Biopolymers 2002, 66, 236-48; Shai, et al., Curr. Protein Pept. Sci. 2006, 7, 479-86). The survival of three mammalian epithelial cell lines was assayed for 2, 3, 5, and 10. […] The cell lines studied were human embryonic kidney (HEK-293), human cervix epithelial (HeLa, ATCC Accession No. CCL-2), and Cercopithecus aethiops kidney (Cos-7, ATCC Accession No. CRL 1651). HeLa cells were acquired from ATCC. Cos-7 and HEK-293 cells were donated by colleagues. Cell lines were regularly maintained in growth media containing DMEM (ATCC), 10% fetal bovine serum (FBS, ATCC) and 1% penicillin-streptomycin solution (ATCC). Adherent HEK-293, HeLa and Cos-7 cells were trypsinized using 0.25% (w/v) trypsin-EDTA (Sigma-Aldrich), suspended in a fresh media and diluted to get a concentration of 3×10^5 cells/ml. Cells were seeded in a 96-well plate (100 μL/well) to get 3×10^4 cells/well. The plates were incubated for 24 hours at 5% CO2 and 37° C. to reach a confluency of 80-90%.
(§2) In a sterile 1.5 mL micro-centrifuge tube, compounds 2, 3, 5, 6, 7 and 10 (0.5% DMSO) were mixed with assay media (DMEM+10% FBS) and serially diluted by 2-fold each to get 2[MIC], [MIC], ½[MIC] and ¼ [MIC] concentrations. A control containing 0.5% DMSO was also prepared. After 24 hours, the spent media in the 96-well plate containing HEK-293, HeLa and Cos-7 cells (90% confluency) was replaced with 100 μL media containing the compounds 2, 3, 5, 6, 7 and 10 at various concentrations. The cells were incubated at 37° C. and 5% CO2 for 24 hours before performing XTT assay (Sigma-Aldrich). The XTT assay was performed according to the manufacturer's protocol. After 24 hours of treatment with compounds, the media was replaced with PBS and 25 μL XTT was added to each well. The XTT assay works by the reduction of tetrazolium compound by alive cells to the colored soluble formazan product. The absorbance of the product was measured at 450 nm (XTT) and 690 nm (background). Percent survival was calculated by comparing the average absorbance of cells treated with compounds 2, 3, 5, 6, 7, and 10 to that of cells alone. Two replicates for each treatment were determined. Average percent survival and standard deviation were calculated.
(§3) Cells were cultured for 24 h in 96-well plates and treated with media containing concentrations using [MIC] and [MIC]×2 determined previously for Tet^R E. coli. The number of surviving cells was determined using an XTT assay (Sigma-Aldrich); the results are represented as percent survival in FIG. 2. Cells alone were used as controls and established 100% survival. […]

[2] = test system: Cos-7 cells; assay: Cytotoxicity to mammalian cells, XTT assay; format: cell-based, Cercopithecus aethiops; conditions: 24 h
Protocol: as §1, §2, §3

[3] = at MIC against Tet^R E. coli (2: 48, 3: 28, 5: 56, 6: 120, 7: 128, 10: 10 μM)
[4] = at twice the MIC (FIG. 3 legend: 2: 96, 3: 56, 5: 112, 6: 240, 7: 256, 10: 20 μM)

Compound | percent survival HEK-293 [1, 3] | percent survival HEK-293 [1, 4] | percent survival Cos-7 [2, 3] | percent survival Cos-7 [2, 4]
Cl.Cl.N[C@@H](Cc1c[nH]c2ccccc12)C(=O)NCCCNC(=O)[C@@H](N)Cc1c[nH]c2ccccc12 [Compound 7, (2S,2′S)-1,1′-(Propane-1,3-diylbis(azanediyl))bis(3-(1H-indol-3-yl)-1-oxopropan-2-aminium) chloride] | 80-100% | 50-80% | 80-100% | 50-80%
Cl.Cl.N[C@H](Cc1c[nH]c2ccccc12)C(=O)NCCCCCCCCCCCCNC(=O)[C@@H](N)Cc1c[nH]c2ccccc12 [Compound 10, (S)-1-((12-((R)-2-Ammonio-3-(1H-indol-3-yl)propanamido)dodecyl)amino)-3-(1H-indol-3-yl)-1-oxopropan-2-aminium chloride] | 80-100% | 50-80% | 80-100% | 50-80%
